Results taken from PMC6434988.
These are yes or no findings as the source states them, for the method shown. Binding seen in cells or lysates may run through a third protein.

Sequences of proteins named here, by UniProt entry; tags and fusion partners are left off. Residues count along the entry.
UniProt P02769, residues 25-607: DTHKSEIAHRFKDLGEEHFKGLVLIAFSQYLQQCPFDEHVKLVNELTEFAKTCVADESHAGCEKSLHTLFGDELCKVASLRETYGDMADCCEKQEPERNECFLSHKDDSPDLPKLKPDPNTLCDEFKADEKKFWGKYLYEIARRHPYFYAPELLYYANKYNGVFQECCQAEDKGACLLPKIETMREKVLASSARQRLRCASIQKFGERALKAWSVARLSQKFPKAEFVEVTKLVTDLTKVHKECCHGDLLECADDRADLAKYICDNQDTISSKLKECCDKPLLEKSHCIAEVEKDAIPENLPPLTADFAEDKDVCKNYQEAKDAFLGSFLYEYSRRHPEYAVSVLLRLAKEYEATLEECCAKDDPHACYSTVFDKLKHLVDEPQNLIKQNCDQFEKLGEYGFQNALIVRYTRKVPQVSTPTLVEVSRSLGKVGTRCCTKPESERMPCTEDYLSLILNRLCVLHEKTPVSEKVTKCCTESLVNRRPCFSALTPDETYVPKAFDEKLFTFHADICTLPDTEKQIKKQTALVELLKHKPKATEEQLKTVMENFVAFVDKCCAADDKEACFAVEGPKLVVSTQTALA

Target: bovine serum albumin (BSA) (protease free) coupled to cyanogen bromide-activated sepharose 4B (bovine) (UniProt P02769)
Test: pull-down; collagen sepharose affinity chromatography: collagen type I or BSA (100 ug/mL) coupled to CNBr-activated sepharose 4B; washed human platelets (4 x 10^8 cells) pre-incubated with vehicle (0.1% DMSO), control IgG, inhibitory anti-HSP47 (10 ug/mL) or SMIH (20 uM) for 2 min at 37 C, lysed with 2% NP40 buffer; beads rotated 1 h at 4 C; bound proteins by immunoblot; only the target purified

B1: Heat shock protein 47 (HSP47), platelet-derived (protein, UniProt P50454 19-418)
chain: AEVKKPAAAAAPGTAEKLSPKAATLAERSAGLAFSLYQAMAKDQAVENILVSPVVVASSLGLVSLGGKATTASQAKAVLSAEQLRDEEVHAGLGELLRSLSNSTARNVTWKLGSRLYGPSSVSFADDFVRSSKQHYNCEHSKINFRDKRSALQSINEWAAQTTDGKLPEVTKDVERTDGALLVNAMFFKPHWDEKFHHKMVDNRGFMVTRSYTVGVMMMHRTGLYNYYDDEKEKLQIVEMPLAHKLSSLIILMPHHVEPLERLEKLLTKEQLKIWMGKMQKKAVAISLPKGVVEVTHDLQKHLAGLGLTEAIDKNKADLSRMSGKKDLYLASVFHATAFELDTDGNPFDQDIYGREELRSPKLFYADHPFIFLVRDTQSGSLLFIGRLVRPKGDKMRDEL
binding: no binding
